Measured data: PubChem BioAssay AID1053208 (Peter MacCallum Cancer Centre, 2014)
Test: 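Find knock-downs that sensitise mouse osteosarcoma cells to doxorubicin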 (primary screen). Cell system: mouse osteosarcoma cells, early-passage culture from an engineered mouse model of fibroblastic bone tumour. Reagents: siRNA pool against mouse genes, 40 nM. Timing: about 120 h (48 h before drug, then 72 h with drug). Treatment: doxorubicin 100 nM for 72 h, roughly 30-40% inhibitory dose. Measurement: 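Viability read as ATP luminescence after 72 h of 100 nM doxorubicin or none, duplicate wells averaged, scaled to non-targeting siRNA, then expressed as robust z-scores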. Direction: viability z-score with doxorubicin: higher = more viable cells under doxorubicin; viability z-score without drug: higher = more viable cells with knock-down alone. Active means: 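Called active if knock-down leaves viability unchanged without drug (z within -2 to 2) but lowers it with doxorubicin (z at or under -2)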.
Here is a random part of about 17,000 reagents tested. 788 of them (4.7%) count as active. 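Calls rest on z-score classes alone; an extra cut-off of viability at most 70% of control was not applied to them.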 Entries without a mark were called inactive. Not all columns of the deposit are shown.

Against Tlr9, the entry reads combined z-score class no change with or without drug; viability z-score with doxorubicin -0.9; viability z-score without drug -1.01.
After knock-down of Sap30, the screen gave combined z-score class no change with or without drug; viability z-score with doxorubicin 0.9; viability z-score without drug 0.84.
With knock-down of Grik4, the record shows combined z-score class no change with or without drug; viability z-score with doxorubicin 1.46; viability z-score without drug -0.17.
Knock-down of Ccdc90b came out at: combined z-score class no change with or without drug; viability z-score with doxorubicin -0.22; viability z-score without drug -0.51.
Bpifa2 showed combined z-score class high cell count with and without drug; viability z-score with doxorubicin 2.92; viability z-score without drug 3.71.
With knock-down of Hal, the record shows combined z-score class no change with or without drug; viability z-score with doxorubicin 0; viability z-score without drug 0.51.
Prdm13 showed combined z-score class high cell count without drug only; viability z-score with doxorubicin 1.8; viability z-score without drug 2.36.
Depletion of Aqp5 came out at: combined z-score class low cell count with doxorubicin only (active); viability z-score with doxorubicin -2.59; viability z-score without drug -0.84.

A run of entries of the results above:
Bpifa2 | combined z-score class: high cell count with and without drug; viability z-score with doxorubicin: 2.92; viability z-score without drug: 3.71
Hal | combined z-score class: no change with or without drug; viability z-score with doxorubicin: 0; viability z-score without drug: 0.51

Further records follow.
Rab36 scored combined z-score class no change with or without drug; viability z-score with doxorubicin -1.46; viability z-score without drug 1.18.
After knock-down of Gapvd1, the screen gave combined z-score class no change with or without drug; viability z-score with doxorubicin -0.67; viability z-score without drug -1.18.
For Blm, the values are combined z-score class no change with or without drug; viability z-score with doxorubicin 0.34; viability z-score without drug -0.17.
Maz gave combined z-score class no change with or without drug; viability z-score with doxorubicin 0.9; viability z-score without drug -0.17.
